According to PMC10584935:
Results are given in words; binding and its absence hold for the method and conditions named. Some binding calls cover weakened binding; strength is not graded here. Sequences can lack the tags named with a protein.

Molecular target: MAB-10 protein fused to the GAL4 DNA-binding domain (C. elegans) (UniProt Q22002)
Test: two-hybrid; yeast Y2HGold, pGADT7 and pGBKT7 fusions; spot assay on SD/-Leu/-Trp/-His/-Ade plates with 10 mM 3-AT, 2 days at 30 °C

B1: MAB-10 protein fused to the GAL4 DNA-binding domain (protein, UniProt Q22002 1-582)
chain: MSSSSSSSLPTSSASTTTSSITSRPSASHHLESILSSSSSSPSILSSLTTQSTSSIPTSSSSSSQRQSTSNADRPVSPKPMPTPTTLSEWQLLAVLSKANLVQYYDVFIAQGGDDINQIMACEEREFLEIMNLVGMLPKPLHVRRMQRALAEYSQDQTAFNLAALQQIGPPPPLNYTPAGTDPMALLLPGIAAATSPKFPSLRFLSQLSSVAEKVSTPSEAADTSSSSPSLNLNTTSSNSVPLAFKFSTPLLESLASDQQSSSTSSVRSVLPSTSSNTSHPELPAGILPATTTNVSAAVPPPSSRATANVFSGNSIGLNFSGAASVTRHLVVPPSSTSIQQPSTSFGRSSSITGQEKEGSSSPFLGVGYSQPYGNDFVSLGDFDPNNPSLTENPTLSTAQISRLAECALAASKNLPPLPPRLVQNKKRVSKEVIELLKCSPATPSMIHAFRKYSAIYGRFDTKRKPHKVLTLHETTVNEAAAQLCLLVPSLLTRRDELFPLARQIVKDAGYNYAKSRKRPCDPADLHSPISSPGNSPPPQESEFDEQPSSSSGAFKEEERPPIPPEAWAAIIEKMKGELPES
binding: binds
